Data taken from PubChem BioAssay AID504444 (National Center for Advancing Translational Sciences (NCATS), 2011).
The whole screen tested about 360,000 compounds, of which about 7,500 (2.1%) were called active. The shares of active, inactive and inconclusive entries below differ from those in the screen. Calls come from the whole dose curve; as a rule, active = well fitted inhibition curve with a large enough effect; inconclusive = small, poorly fitted or top-dose-only effect, or effect the other way; inactive = flat fitted curve, though single readings scatter. A potency beside an inconclusive call is a rough fit, not a confirmed value.

Assay: Nrf2 qHTS screen for inhibitors; note: nearly all actives have a fitted effect of over 60% in size
Settings: A549 ARE-Fluc reporter, luciferase luminescence, 18-24 h; series mostly up to 46 µM
Outline: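 A549 ARE_Fluc cells (5000/well, 5% FBS OPTI-MEM) pre-incubated 2 h, then treated with compounds 18-24 h at 37C/5% CO2 in concentration-response. CellTiter-Fluor viability read first; BugLite luciferase luminescence after 15 min at room temperature gives Nrf2 activity.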
Potency is the fitted concentration of half-maximal effect.

Row | Compound | Potency
1 | CCOc1ccc(NC(=O)CN(C)C(=O)c2ccc(OCC3CCCO3)cc2)cc1OCC (centres undefined) | inconclusive: 0.82 µM [falling, full curve, poor fit]
2 | CC1CCc2sc(C(=O)N/N=C/c3ccc(O)cc3)cc2C1 (centres undefined) | inconclusive: 32.6 µM [falling, single point]
3 | O=C1C2C3C=CC(C4CC34)C2C(=O)N1CCc1ccccc1 (centres undefined) | inconclusive: 13 µM [activator, partial curve]
4 | CC(=O)c1cc(C#N)c(SCC(=O)Nc2nccs2)nc1C | inconclusive: 6.51 µM [activator, single point]
5 | Clc1cccc(-c2cc3nc4c(c(NCc5ccco5)n3n2)CCCC4)c1 | inconclusive: 0.651 µM [activator, full curve, poor fit]
6 | CC1CCC2(CC1)NC(=O)N(Cc1nc(-c3ccccc3)no1)C2=O (centres undefined) | inconclusive: 29.1 µM [falling, single point]
7 | CCc1nc2ccccc2[nH]1 | inconclusive: 7.31 µM [falling, partial curve, poor fit]
8 | COc1ccc(NC(=O)C2CCN(S(=O)(=O)c3ccc(N4CCCC4=O)cc3)CC2)c(OC)c1 | inactive
9 | O=C(C(Sc1ccccc1)c1ccccc1)N1CCN(c2ccccc2)CC1 (centres undefined) | inconclusive: 18.4 µM [falling, single point]
10 | S=C(NCc1ccccc1)NNc1ccccc1 | inconclusive: 4.61 µM [activator, partial curve, poor fit]
11 | Cc1cccc(NC(=O)C(c2ccccc2)N2Cc3ccccc3C2=O)c1C (centres undefined) | inactive
12 | CN(C)S(=O)(=O)c1ccc(N2CCCC2)c(C(=O)Nc2nc3ccccc3s2)c1 | inconclusive: 18.4 µM [activator, partial curve, poor fit]
13 | O=C(/C=C\c1ccco1)Nc1nc(-c2ccccc2)cs1 | inactive
14 | O=C(Nc1cccc(C(F)(F)F)c1)NC1CCCCC1 | inconclusive: 0.731 µM [activator, partial curve]
15 | COc1ccc(Nc2nc(-c3cc4cccc(OC)c4oc3=O)cs2)cc1 | inactive
16 | COc1ccc(CN(C)C(=O)/C=C/c2ccc(S(=O)(=O)N3CCOCC3)cc2)cc1F | inconclusive: 11.6 µM [falling, partial curve]
17 | C=CCn1cnc2scc(-c3ccc(C)c(C)c3)c2c1=O | inconclusive: 23.1 µM [falling, single point]
18 | Cc1cc(N2C(=O)C3CC=CC(C)C3C2=O)no1 (centres undefined) | inactive
19 | COCCCNC(=O)c1ccc2c(=O)n(C3CCCC3)c(=S)[nH]c2c1 | inconclusive: 25.9 µM [falling, partial curve, poor fit]
20 | CCc1ccc(CNCCNC(=O)c2ccco2)cc1 | inconclusive: 23.1 µM [falling, single point]
21 | OCc1ccnc2c(O)cccc12 | inconclusive: 32.6 µM [falling, partial curve, poor fit]
22 | COc1cc2c(cc1OC)/C(=C/C(=O)c1ccccc1)NCC2 | inconclusive: 13 µM [falling, partial curve]

Row | Compound | Potency
23 | Cc1cccc(CNC(=O)c2ccc(-c3nc(CS(=O)(=O)c4ccccc4)c(C)o3)cc2)c1 | inconclusive: 3.26 µM [falling, single point]
24 | Nc1nc(-c2ccc(Cl)cc2)nc(-c2ccc(Cl)cc2)n1 | inconclusive: 29.1 µM [falling, single point]
25 | Cc1[nH]n(C)c(=O)c1N=Nc1ccc(S(C)(=O)=O)cc1 | inconclusive: 14.6 µM [falling, partial curve, poor fit]
26 | O=C(CC1Nc2ccccc2NC1=O)Nc1ccccc1 (centres undefined) | inconclusive: 3.66 µM [activator, single point]
27 | COc1cc(NCCC(=O)c2cccs2)c(OC)cc1Cl | inactive
28 | COC(c1ccccc1)c1nc2ccccc2[nH]c1=O (centres undefined) | inconclusive: 20.6 µM [activator, partial curve, poor fit]
29 | C/C(=N\NC(=O)Cc1ccc(F)cc1)c1ccc(O)cc1 | inconclusive: 6.51 µM [falling, partial curve, poor fit]
30 | COc1ccc(N2C(=O)C3CCCN3C2c2cccs2)cc1 (centres undefined) | inconclusive: 0.92 µM [falling, full curve, poor fit]
31 | CN(C)c1ccc(-c2nc(-c3ccccn3)no2)cc1[N+](=O)[O-] | inactive
32 | COc1ccccc1N1CCN(Cc2ccc(-c3ccccc3[N+](=O)[O-])o2)CC1 | active: 23.1 µM
33 | CC1(C)Cc2c(C#N)c(SCC(=O)O)nc(N3CCOCC3)c2CO1 | inactive
34 | Cc1cccc(C(=O)NC(=S)NNC(=O)c2ccc(Cl)cc2)c1 | inconclusive: 29.1 µM [falling, single point]
35 | O=C(NC1=NCCS1)c1cc(-c2ccc(-c3ccccc3)cc2)nc2ccccc12 | inconclusive: 8.2 µM [activator, partial curve]
36 | COc1ccc(CCN(C)C(=O)CN2C(=O)NC3(CCCc4ccccc43)C2=O)cc1OC (centres undefined) | inconclusive: 2.06 µM [activator, partial curve, poor fit]
37 | Cn1c2ccccc2c(=O)c2c(O)cccc21 | inactive
38 | COCCn1c(C)cc(C(=O)COC(=O)Cc2n[nH]c(=O)c3ccccc23)c1C | inconclusive: 29.1 µM [falling, single point]
39 | O=C(Nc1ncc([N+](=O)[O-])s1)c1ccco1 | inconclusive: 1.64 µM [activator, full curve]
40 | COc1cc(-c2noc(C)c2/C=C/c2ccc(C(=O)O)cc2)cc(OC)c1OC | inactive
41 | COc1ccc(S(=O)(=O)N(CC(=O)NC2CC3CCC2C3)c2ccccc2OC)cc1 (centres undefined) | inactive
42 | COc1ccc(OCC(=O)Nc2cccc(-c3nc4ccccc4[nH]3)c2)cc1 | inconclusive: 3.26 µM [activator, full curve]
43 | O=C(COC(=O)c1ccc2ncsc2c1)NCc1ccc(Cl)cc1 | inconclusive: 18.4 µM [activator, partial curve, poor fit]
44 | CCOc1ccc(CCNC(=O)C2CCCN(c3nnc(C)c4c(C)n(-c5ccccc5)nc34)C2)cc1 (centres undefined) | inactive
